This test relates to P388 leukemia ip, CD2F1 mice, survival T/C. Kind of test: NCI In Vivo Anticancer Drug Screen. Data for tumor model P388 Leukemia (intraperitoneal) in CD2F1 (CDF1) mice. Conditions: T/C endpoint: median survival time, higher T/C = longer survival.
Setting [1] is: dose: 100.0 mg/kg/injection, schedule: Q01DX005 (ip), vehicle: Klucel (hydroxypropylcellulose) (HPC).
[2] abbreviates: dose: 200.0 mg/kg/injection, schedule: Q01DX005 (ip), vehicle: saline.
The mark [3] stands for this setting: dose: 200.0 mg/kg/injection, schedule: Q01DX009 (ip), vehicle: saline.
Setting [4] is: dose: 200.0 mg/kg/injection, schedule: Q01DX009 (ip), vehicle: saline with Tween-80.
Setting [5] is: dose: 50.0 mg/kg/injection, schedule: Q01DX005 (ip), vehicle: saline with Tween-80.
The mark [6] stands for this setting: dose: 100.0 mg/kg/injection, schedule: Q01DX005 (ip), vehicle: saline with Tween-80.
Where [7] appears, read: dose: 200.0 mg/kg/injection, schedule: Q01DX005 (ip), vehicle: saline with Tween-80.
Where [8] appears, read: dose: 25.0 mg/kg/injection, schedule: Q01DX009 (ip), vehicle: saline.
Where [9] appears, read: dose: 100.0 mg/kg/injection, schedule: Q01DX009 (ip), vehicle: saline with Tween-80.

The structures appear in SMILES notation. The list shows only some results of the screen, not a fair sample: it gathers tests that were run many times, whatever their T/C, doses with no T/C, and many T/C values between a quarter and a half above the control. Other doses and runs of a compound stand elsewhere. T/C gives the treated animals as a percentage of the vehicle group. Some entries give survivors of the animals treated and no T/C: the source files T/C as zero there, which appears to mark a toxic dose or a test without result, not a measured value. Some doses without a T/C left all or most animals alive at the check, yet need not have been tolerated: survival well below the control is almost never listed, so the zero probably covers shortened survival too. Survivors were counted at the toxicity check, usually on the fifth day, unless a day is given; later deaths do not show. Schedules are NCI's codes, read here as Q, the interval in days (D) or hours (H), X, the number of doses. Some doses were run more than once; the results are listed from low to high. Some structures stand for samples that the source files as different forms (salt, stereo form or complex); doses refer to the form tested. For survival time, this PubChem deposit counts one and a half times the control or more as active, and values a quarter to a half above the control carry no call in these data; other NCI protocols may use other cut-offs. Some T/C values are followed by the survivors on the day toxicity was checked, most often the fifth; without a count, all were alive then.

For `COc1ccc2cc1Oc1ccc(cc1)CC1c3c(cc(OC)c(OC)c3Oc3cc4c(cc3OC)CCN(C)C4C2)CCN1C` (configuration not stated), the survivor count (dose: 400.0 mg/kg/injection, schedule: Q01DX001 (ip), vehicle: saline with Tween-80) was 0 of 6.

As for `CCOC(=O)C(Cc1ccc(N(CCCl)CCCl)cc1)NC=O` (configuration not stated), the T/C (dose: 3.13 mg/kg/injection, schedule: Q04DX003 (ip), vehicle: saline with Tween-80) was 127 % of control and the T/C (dose: 25.0 mg/kg/injection, schedule: Q04DX003 (ip), vehicle: saline with Tween-80) was 145 % of control. Further, the survivor count (dose: 400.0 mg/kg/injection, schedule: Q04DX003 (ip), vehicle: saline with Tween-80) was 2 of 6.

As for `COc1ccc(NS(=O)(=O)c2ccc(NC(=O)NCCCl)cc2)nn1`, the survivor count under setting [1] is 6 of 6.

Regarding `O=C1CSC(=Nc2ccccc2F)N1c1ccccc1F`, the survivor count (dose: 200.0 mg/kg/injection, schedule: Q01DX009 (ip), vehicle: Klucel (hydroxypropylcellulose) (HPC)) is listed as 2 of 6.

On to `CCCCN(CCCC)Cc1c(C)[nH]c2ccc(N(C)C)cc2c1=O`, for which the survivor count (dose: 200.0 mg/kg/injection, schedule: Q01DX009 (ip), vehicle: suspension in saline) is reported as 0 of 6.

Regarding `CC(C)C/C=N\N=C(N)N`, the survivor count under setting [2] was 0 of 6.

Take `COc1ccc(NC(=O)Oc2ccc3c(C)cc(=O)oc3c2)c(OC)c1`: the T/C (dose: 50.0 mg/kg/injection, schedule: Q01DX009 (ip), vehicle: saline with Tween-80) is 132 % of control.

Turning to `CSCC(NP1(=O)SC(NN=C(C)C)=NC1(C)C)C(=O)O` (configuration not stated), the survivor count (dose: 240.0 mg/kg/injection, schedule: Q01DX005 (ip), vehicle: saline) is 0 of 6.

On to `CCOC(=O)c1ccc(NC(=O)CSc2nc3ccccc3o2)cc1`, for which, under setting [3], the survivor count is recorded as 0 of 6.

For `O=C1C=C(N2CC2)C(=O)C=C1N1CC1`, the T/C (dose: 0.12 mg/kg/injection, schedule: Q01DX009 (ip), vehicle: saline) was 126 and 146 % of control. The survivor count is 6 of 6 (dose: 1.0 mg/kg/injection, schedule: Q01DX009 (ip), vehicle: saline); 5 of 6 and 6 of 6 (dose: 2.0 mg/kg/injection, schedule: Q01DX009 (ip), vehicle: saline).

With `C/C=C1/CN2CCc3c([nH]c4ccccc34)C2CC1C(Cc1c[n+]2c(c3[nH]c4ccccc4c13)CC1C(C(=O)OC)=COC(C)C1C2)C(=O)OC` (configuration not stated), the survivor count under setting [4] is 0 of 6.

In the case of `CC(C)COc1cccc2[oH+]c(C(=O)[O-])cc(=O)c12.CC(C)COc1cccc2[oH+]c(C(=O)[O-])cc(=O)c12.[Cu+2]`, the survivor count reads like this: (dose: 100.0 mg/kg/injection, schedule: Q04DX002 (ip), vehicle: saline with Tween-80) 1 of 6; (dose: 200.0 mg/kg/injection, schedule: Q04DX002 (ip), vehicle: saline with Tween-80) 0 of 6; (dose: 400.0 mg/kg/injection, schedule: Q04DX002 (ip), vehicle: saline with Tween-80) 0 of 6.

For the molecule `CCOc1ccc(/C=C/c2ccc3ccccc3[n+]2C)cc1OCC`, the T/C reads like this: (dose: 3.12 mg/kg/injection, schedule: Q01DX009 (ip), vehicle: saline with Tween-80) 138 % of control; (dose: 6.25 mg/kg/injection, schedule: Q01DX009 (ip), vehicle: saline with Tween-80) 130 % of control; (dose: 12.5 mg/kg/injection, schedule: Q01DX009 (ip), vehicle: saline with Tween-80) 132 % of control; (dose: 25.0 mg/kg/injection, schedule: Q01DX009 (ip), vehicle: saline with Tween-80) 138 % of control.

`Nc1cccnc1`: the survivor count is given as 0 of 6 (dose: 50.0 mg/kg/injection, schedule: Q01DX009 (ip), vehicle: saline); 0 of 6 (dose: 100.0 mg/kg/injection, schedule: Q01DX009 (ip), vehicle: saline); 0 of 6 under setting [3].

With `N#CC=Cc1ccc([N+](=O)[O-])s1` (mixture of isomers), the T/C under setting [5] was 130 and 131 % of control. In addition, the survivor count was 3 of 6 and 4 of 6 under setting [6]; 0 of 6 under setting [7].

Consider `C[n+]1c2cc(N)ccc2cc2ccc(N)cc21`, for which the T/C is, setting by setting: (dose: 1.56 mg/kg/injection, schedule: Q01DX005 (ip), vehicle: saline with Tween-80) 132 % of control; (dose: 1.56 mg/kg/injection, schedule: Q01DX009 (ip), vehicle: saline) 131 % of control; (dose: 3.12 mg/kg/injection, schedule: Q01DX005 (ip), vehicle: saline with Tween-80) 130 % of control; (dose: 3.13 mg/kg/injection, schedule: Q01DX009 (ip), vehicle: saline) 147 % of control; (dose: 6.25 mg/kg/injection, schedule: Q01DX005 (ip), vehicle: saline with Tween-80) 142 % of control; (dose: 12.5 mg/kg/injection, schedule: Q01DX005 (ip), vehicle: saline with Tween-80) 149 % of control. For the same molecule, the T/C (dose: 12.5 mg/kg/injection, schedule: Q01DX005 (ip), vehicle: suspension in saline) was 126 % of control. Further, the survivor count is, setting by setting: under setting [8], 0 of 6; under setting [5], 0 of 5; under setting [6], 0 of 5; under setting [7], 0 of 5.

As to `Cc1c2ccccc2c(C)c2c1cc(C(=O)O)c1ccccc12`, the T/C is, setting by setting: under setting [6], 130 and 131 % of control; under setting [7], 131 % of control [5 of 6 alive].

Take `C[C@@H]1CN(C(=O)CCOS(C)(=O)=O)[C@@H](C)CN1C(=O)CCOS(C)(=O)=O`: the T/C (dose: 12.5 mg/kg/injection, schedule: Q04DX003 (ip), vehicle: saline) is 145 % of control. Further, the survivor count (dose: 600.0 mg/kg/injection, schedule: Q04DX003 (ip), vehicle: saline with Tween-80) is reported as 4 of 6.

Take `O=C1CC(c2ccccc2)C(c2ccccc2)CO1` (configuration not stated): the survivor count (dose: 200.0 mg/kg/injection, schedule: Q04DX003 (ip), vehicle: Klucel (hydroxypropylcellulose) (HPC)) is recorded as 6 of 6.

As for `CC[NH-].CC[NH-].[Cl][Pt+2][Cl]`, the T/C (dose: 6.25 mg/kg/injection, schedule: Q01DX009 (ip), vehicle: suspension in saline) was 134 % of control. In addition, the survivor count was 6 of 6 under setting [8] and 6 of 6 (dose: 25.0 mg/kg/injection, schedule: Q01DX009 (ip), vehicle: suspension in saline).

Regarding `O=C1CCc2cc([N+](=O)[O-])cc3c2N1CCC3`, the survivor count under setting [1] was 5 of 5.

Take `C(=Nc1ccc2c(c1)Cc1ccccc1-2)c1ccc2ccccc2c1`: the survivor count is 6 of 6 (dose: 100.0 mg/kg/injection, schedule: Q04DX002 (ip), vehicle: saline) and 6 of 6 (dose: 200.0 mg/kg/injection, schedule: Q04DX002 (ip), vehicle: saline).

`NNc1ncnc2c1ncn2C1OC(CO)C(O)C1O` (configuration not stated): the T/C runs as follows: (dose: 66.0 mg/kg/injection, schedule: Q01DX009 (ip), vehicle: saline with Tween-80) 145 % of control; under setting [9], 145 % of control. Also, the survivor count by setting is: under setting [9], 6 of 6; (dose: 150.0 mg/kg/injection, schedule: Q01DX009 (ip), vehicle: saline with Tween-80) 3 of 6 and 5 of 6; under setting [4], 2 of 6; (dose: 400.0 mg/kg/injection, schedule: Q04DX003 (ip), vehicle: saline) 0 of 6.

As for `CCOC(=O)C1=C(SC)SC(C(=O)OCC)C2C=C(C)C=CN12` (configuration not stated), the survivor count (dose: 120.0 mg/kg/injection, schedule: Q01DX005 (ip), vehicle: Klucel + Tween-80) is given as 3 of 6 and the survivor count (dose: 240.0 mg/kg/injection, schedule: Q01DX005 (ip), vehicle: Klucel + Tween-80) is on record as 0 of 6.

Regarding `CCN(CC)CCCC(C)Nc1nccc2c(Cl)cccc12` (configuration not stated), under setting [2], the survivor count was 0 of 5.

Take `C[N+](C)(C)CCCCCCN`: the survivor count under setting [3] is listed as 2 of 6.

Turning to `c1ccc(CN2COCO[C@H]3CCC[C@@H]32)cc1`, for the setting “dose: 200.0 mg/kg/injection, schedule: Q01DX005 (ip), vehicle: Klucel (hydroxypropylcellulose) (HPC)”, the survivor count is reported as 0 of 6.

Turning to `COc1cccc(-c2nc(-c3ccccc3)nc(N(C)C)n2)c1O`, for the setting “dose: 240.0 mg/kg/injection, schedule: Q01DX005 (ip), vehicle: Klucel (hydroxypropylcellulose) (HPC)”, the survivor count is given as 3 of 6.

The values are drawn from PubChem BioAssay AID330 (DTP/NCI, 2004).
